Source: PubChem BioAssay AID2685 (National Center for Advancing Translational Sciences (NCATS), 2010)
The other results are listed elsewhere or left out. Further columns of the screen follow, without active or inactive calls. The list favours compounds with an active or inconclusive main result. The note in brackets gives the kind of curve behind each potency; many fits are weak.

Experiment: qHTS Assay for Lipid Storage Modulators in Drosophila S3 Cells;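 for cell number change: cells counted by Cell Tracker Red CMTPX staining in the red channel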
Conditions: BODIPY lipid droplet fluorescence, 18-24 h; for cell number change: measured here: cell count max response, cells fed with added oleic acid
Method in brief: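 Drosophila S3 cells got compounds at several concentrations plus oleic acid (400 uM solution). Laser-scanning cytometry with 488 nm excitation read lipid droplets at 500-530 nm and cells at 575-640 nm. Percent activity was relative to 20 uM Triacsin C.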

[1] = measured here: cell number channel AC50, cells fed with added oleic acid
[2] = measured here: lipid fluorescence (Fed channel) AC50, cells fed with added oleic acid

SMILES	cell number change [%]	AC50 [1]	AC50 [2]
Cc1ccc2cc(C)c(SCC#N)nc2c1	70.3	20.6 µM [rising, single point]	0.651 µM [rising, partial curve]
CN(CC(=O)NCc1ccco1)C(=O)C1CC(=O)N(c2ccc3c(c2)OCCO3)C1 (stereo not given)	12		6.51 µM [falling, single point]
CN1CCCN(S(=O)(=O)c2ccccc2)CC1	-3.55		
CCN(C(=O)COC(=O)c1c(C)nn(-c2ccccc2)c1Cl)c1c(N)n(Cc2ccccc2)c(=O)[nH]c1=O	8.84		
O=C(CNCC1CCCCC1)Nc1ccc(OC(F)(F)F)cc1	35		
CCOc1ccc(-c2nnc(SCc3nc4ccccc4[nH]3)n2N)cc1	7.56		
CSc1cc(-c2ccc(Cl)cc2)[nH]c(=O)c1C#N	-32.8	3.26 µM [falling, partial curve, poor fit]	1.3 µM [falling, partial curve]
COc1ccc(N2CCN(C(=O)c3ccc4[nH]c(C)c(C)c4c3)CC2)cc1	10.9		
O=C(NCc1cccc(Cl)c1)c1ccncc1	-6.49		29.1 µM [falling, single point]
CC1(C)Cc2c(sc3nc[nH]c(=O)c23)CO1	-14.3		18.4 µM [falling, single point]
CC(=O)Cc1nsc(NC(=O)c2ccccc2)n1	-23		
C/C(=N\Nc1ccc(S(=O)(=O)N2CCCCC2)cn1)c1cccc(Br)c1	-19.4		0.411 µM [falling, partial curve]
NC(=O)N/N=C/c1cn(CC(=O)Nc2ccc(F)cc2)c2ccccc12		0.517 µM [rising, single point]	0.731 µM [rising, partial curve, poor fit]
O=C(CN1C(=O)c2ccccc2C1=O)NCc1ccc(N2CCOCC2)cc1	5.68		0.13 µM [falling, full curve, poor fit]
CNc1nc(-c2ccc3c(c2)CCN3C(=O)c2ccc(F)cc2)cs1	48.1	29.1 µM [rising, single point]	5.8 µM [rising, full curve]
Cc1occc1C(=O)N/N=C/C(Br)=C/c1ccccc1	24.1		6.51 µM [falling, single point]
CCOC(=O)N1CCN(C(=O)c2cc(COc3ccc4ncccc4c3)on2)CC1	-53.2	16.4 µM [falling, partial curve]	8.2 µM [falling, partial curve]
CCCCN1CC(O)=C(c2nc3ccccc3[nH]2)C1=N			7.31 µM [rising, single point]
Cc1ccc(-c2cn(-c3ccc(SC(F)F)cc3)c3[n+]2CCC3)cc1	-3.88		29.1 µM [falling, single point]
Cc1cccn2c(=O)c3cc(C(=O)NCC4CCCO4)c(=N)n(C4CCCC4)c3nc12 (stereo not given)	11.3		

SMILES	cell number change [%]	AC50 [1]	AC50 [2]
O=C(CN1CCN(Cc2ccc(Cl)cc2)CC1)N/N=C/c1ccccc1F	15.2		
O=C(COC(=O)c1ccc(Br)o1)Nc1ncc(Cl)cc1Cl	21	0.0651 µM [rising, full curve, poor fit]	0.058 µM [rising, full curve, poor fit]
COC(=O)CCCC1=CC2=CC(=O)C(C)(OC(=O)C3CCCC3)C(=O)C2=CO1 (stereo not given)	6.01		6.51 µM [falling, single point]
CC12CCC(=O)N1C(C(=O)Nc1nc3ccc(Cl)cc3s1)CS2 (stereo not given)			29.1 µM [rising, single point]
Cc1noc(C)c1CSCC(=O)N(C)CC(=O)Nc1ccc(Cl)c(C(F)(F)F)c1	-12.2		16.4 µM [falling, single point]
COC(=O)c1cc2occc2n1CC(=O)Nc1ccc(OC)c(OC)c1	2.17		0.146 µM [falling, full curve]
O=C(/C=C/c1ccco1)Nc1nc(-c2ccccc2)cs1	33.3	20.6 µM [rising, single point]	
O=C(NCc1ccccn1)C1COc2ccccc2O1 (stereo not given)	38.6	13 µM [rising, partial curve, poor fit]	
CCC(=O)OCC(=O)C1(OC(=O)CC)[C@H](C)C[C@H]2[C@H]3[C@H]([C@@H](O)C[C@@]21C)[C@@]1(C)C=CC(=O)C=C1C[C@H]3Cl (stereo not given in full)	-1.12		2.06 µM [rising, partial curve]
O=C(COC(=O)Cc1cccc(C(F)(F)F)c1)Nc1ccc2[nH]c(=O)[nH]c2c1	-5.12	0.058 µM [falling, full curve, poor fit]	0.651 µM [falling, full curve]
CCOc1cc(/C=C(\C#N)C(=O)Nc2cccc(C(=O)O)c2)ccc1OCc1ccc(Br)cc1	26.9		1.03 µM [rising, partial curve]
CSCCC(NC(N)=O)C(=O)N(C)CC(=O)Nc1cc(C)ccc1C (stereo not given)	36.9	4.11 µM [rising, partial curve]	5.8 µM [rising, full curve]
C=CCn1c(=O)/c(=C\c2ccsc2)s/c1=C(/C#N)C(=O)NCCN1CCOCC1			1.16 µM [rising, full curve]
CCOC(CCNC(=O)c1cn(-c2cccc(C)n2)cn1)OCC	9.01		0.00461 µM [rising, full curve, poor fit]
Cc1ccc(C(CNC(=O)c2ccco2)N2CCN(C)CC2)cc1 (stereo not given)	-1.65		0.291 µM [rising, full curve, poor fit]
COc1ccccc1NC(=O)NC(=O)c1ccccc1	2.89		3.66 µM [rising, full curve]
COCCNc1nc2c(c(=O)n(Cc3cccc(Br)c3)c(=O)n2C)n1C	21.4		1.46 µM [rising, full curve, poor fit]
COc1ccc(NC(=O)c2cc3c(=O)n(C)c4ccccc4c3n2C)cc1OC		0.731 µM [rising, full curve]	0.58 µM [rising, full curve]
COc1cccc(/C=N/Nc2ccnc(=O)[nH]2)c1O	13.5	6.51 µM [rising, single point]	6.51 µM [rising, single point]

Two neighbouring entries out of the list so far:
SMILES	cell number change [%]	AC50 [1]	AC50 [2]
CCOC(CCNC(=O)c1cn(-c2cccc(C)n2)cn1)OCC	9.01		0.00461 µM [rising, full curve, poor fit]
Cc1ccc(C(CNC(=O)c2ccco2)N2CCN(C)CC2)cc1 (stereo not given)	-1.65		0.291 µM [rising, full curve, poor fit]
